# Test results: patent US9573910B2, “Oxazolidinone antibacterial compound” (Lee Pharma Limited, priority 2013, dated 2017)
# At least one compound was matched to its structure with a doubt left.
# System: S. maltophilia
# Assay: Susceptibility test profile for commercially available antibiotics
# Assay type: cell-based, Stenotrophomonas maltophilia
# Conditions: Quantity 2 μg
# Description: Anti bacterial evaluation of compound-I was done against Stenotrophomonas maltophilia on following parameters— • f. Agar-plate assay for different concentrations (10, 50, 100, 150 μg) • g. MIC studies • 1. With different concentrations (1000 to 5 μg/ml-˜10 different concentrations) • 2. Different time periods (4 to 32 hrs—8 different time intervals) • h. Mode of action with relation to survivability of organism • 1. Cidal/static with concentration and incubation time based) • 2. Evaluation by colony counting/dye based • i. Susceptibility test (evaluation of >40 antibiotics of different nature) • j. Antibacterial potential studies with other infectious bacteria (˜20 different strains) Results Agar-Plate Assay
# Susceptibility Test Profile of S. maltophilia for Different Antibiotics (FIG. 10)
smiles,measurement,value
CCC[C@@H]1C[C@@H](C(=O)N[C@@H]([C@H]2O[C@H](SC)[C@H](O)[C@@H](O)[C@H]2O)[C@H](C)Cl)N(C)C1 [Clindamycin],Zone (mm),Resistant
